# Laboratory results taken from the supplement of paper PMC6411743.
# ± gives the standard deviation of the averaged measurements. The list shows a part of the results.
# What was measured:
# Test in all cases: NP40-soluble protein abundance relative to vehicle (solubility fold change) (ratio); higher = more soluble protein in presence of GTP
# [1] = target: T1, AARSD1 (UniProt Q9BTE6)
# T1 sequence (whole entry): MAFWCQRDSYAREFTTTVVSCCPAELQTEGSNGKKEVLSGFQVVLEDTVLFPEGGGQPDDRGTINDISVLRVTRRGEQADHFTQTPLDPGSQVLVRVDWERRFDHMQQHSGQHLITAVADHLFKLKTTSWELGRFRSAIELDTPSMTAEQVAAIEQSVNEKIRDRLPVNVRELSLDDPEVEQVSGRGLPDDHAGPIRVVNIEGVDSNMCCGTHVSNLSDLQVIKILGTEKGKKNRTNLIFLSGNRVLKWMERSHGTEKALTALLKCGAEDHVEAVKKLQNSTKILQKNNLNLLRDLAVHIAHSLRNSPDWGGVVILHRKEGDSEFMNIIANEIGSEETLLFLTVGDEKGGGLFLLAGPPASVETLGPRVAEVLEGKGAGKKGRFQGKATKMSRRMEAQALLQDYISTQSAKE
# Method in brief: (§1)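 In three independent experiments, Jurkat crude lysate made by Dounce homogenisation was treated for 10 min at room temperature and then 3 min at 37 °C with eight concentrations ranging from 0.1 to 10 mM. It was then solubilised with 0.8% NP40 plus benzonase for 60 min at 4 °C and ultracentrifuged. The supernatant was TMT-labelled for LC-MS/MS, and each value is the fold change against the detergent-processed vehicle for the same replicate, using vsn-normalised intensities.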
# [2] = target: T2, CMTM3 (UniProt Q96MX0)
# T2 sequence (whole entry): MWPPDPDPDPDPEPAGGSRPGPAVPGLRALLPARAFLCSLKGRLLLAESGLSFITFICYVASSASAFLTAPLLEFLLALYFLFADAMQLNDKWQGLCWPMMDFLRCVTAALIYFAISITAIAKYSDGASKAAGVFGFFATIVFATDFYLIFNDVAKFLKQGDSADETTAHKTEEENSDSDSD
# Method in brief: as §1
# [3] = target: T3, DNAJC1 (UniProt Q96KC8)
# T3 sequence (whole entry): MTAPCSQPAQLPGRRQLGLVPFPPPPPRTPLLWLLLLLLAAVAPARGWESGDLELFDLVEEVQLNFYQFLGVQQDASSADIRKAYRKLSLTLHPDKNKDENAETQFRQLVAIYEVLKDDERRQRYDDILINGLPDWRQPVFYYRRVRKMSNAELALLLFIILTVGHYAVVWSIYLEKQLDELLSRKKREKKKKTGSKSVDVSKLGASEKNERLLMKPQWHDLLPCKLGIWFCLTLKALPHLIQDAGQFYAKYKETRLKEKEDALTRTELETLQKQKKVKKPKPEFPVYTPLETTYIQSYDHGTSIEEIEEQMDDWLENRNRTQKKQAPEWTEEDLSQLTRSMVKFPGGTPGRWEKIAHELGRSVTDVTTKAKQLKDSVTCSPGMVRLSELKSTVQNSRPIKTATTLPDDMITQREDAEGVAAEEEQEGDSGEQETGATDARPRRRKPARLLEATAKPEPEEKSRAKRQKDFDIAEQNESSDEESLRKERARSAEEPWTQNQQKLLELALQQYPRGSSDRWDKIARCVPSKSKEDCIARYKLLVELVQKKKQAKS
# Method in brief: as §1
# [4] = target: T4, DNAJC2 (UniProt Q99543)
# T4 sequence (whole entry): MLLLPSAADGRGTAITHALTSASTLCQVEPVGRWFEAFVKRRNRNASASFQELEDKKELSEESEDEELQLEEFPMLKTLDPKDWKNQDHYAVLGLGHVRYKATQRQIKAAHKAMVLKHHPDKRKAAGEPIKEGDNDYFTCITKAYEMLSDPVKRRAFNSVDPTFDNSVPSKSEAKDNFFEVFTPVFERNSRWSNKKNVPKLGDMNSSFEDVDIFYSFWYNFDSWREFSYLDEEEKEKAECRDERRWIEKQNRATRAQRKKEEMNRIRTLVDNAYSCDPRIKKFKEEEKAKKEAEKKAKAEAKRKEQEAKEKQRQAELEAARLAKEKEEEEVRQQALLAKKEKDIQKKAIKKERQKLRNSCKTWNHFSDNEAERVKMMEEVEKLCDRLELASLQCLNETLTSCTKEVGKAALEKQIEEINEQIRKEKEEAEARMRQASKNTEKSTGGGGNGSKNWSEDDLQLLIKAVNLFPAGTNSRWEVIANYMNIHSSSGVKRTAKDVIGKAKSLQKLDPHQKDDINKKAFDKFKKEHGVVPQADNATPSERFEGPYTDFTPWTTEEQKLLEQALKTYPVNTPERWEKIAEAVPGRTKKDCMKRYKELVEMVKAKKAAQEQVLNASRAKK
# Method in brief: as §1
# [5] = target: T5, EFHD1 (UniProt Q9BUP0)
# T5 sequence (whole entry): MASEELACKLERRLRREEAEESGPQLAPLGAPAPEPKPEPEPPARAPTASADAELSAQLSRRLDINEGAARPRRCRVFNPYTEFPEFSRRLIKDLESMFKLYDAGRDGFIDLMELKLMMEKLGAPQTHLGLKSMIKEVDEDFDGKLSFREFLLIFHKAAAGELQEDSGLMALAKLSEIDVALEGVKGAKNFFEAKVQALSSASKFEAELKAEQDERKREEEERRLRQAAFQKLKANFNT
# Method in brief: as §1
# [6] = target: T6, FUNDC2 (UniProt Q9BWH2)
# T6 sequence (whole entry): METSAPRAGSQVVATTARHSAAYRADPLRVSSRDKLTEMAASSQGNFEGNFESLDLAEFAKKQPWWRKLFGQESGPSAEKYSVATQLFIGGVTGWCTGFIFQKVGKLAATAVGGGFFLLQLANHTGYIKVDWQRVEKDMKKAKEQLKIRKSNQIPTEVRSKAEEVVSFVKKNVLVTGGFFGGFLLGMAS
# Method in brief: as §1
# [7] = target: T7, MNT (UniProt Q99583)
# T7 sequence (whole entry): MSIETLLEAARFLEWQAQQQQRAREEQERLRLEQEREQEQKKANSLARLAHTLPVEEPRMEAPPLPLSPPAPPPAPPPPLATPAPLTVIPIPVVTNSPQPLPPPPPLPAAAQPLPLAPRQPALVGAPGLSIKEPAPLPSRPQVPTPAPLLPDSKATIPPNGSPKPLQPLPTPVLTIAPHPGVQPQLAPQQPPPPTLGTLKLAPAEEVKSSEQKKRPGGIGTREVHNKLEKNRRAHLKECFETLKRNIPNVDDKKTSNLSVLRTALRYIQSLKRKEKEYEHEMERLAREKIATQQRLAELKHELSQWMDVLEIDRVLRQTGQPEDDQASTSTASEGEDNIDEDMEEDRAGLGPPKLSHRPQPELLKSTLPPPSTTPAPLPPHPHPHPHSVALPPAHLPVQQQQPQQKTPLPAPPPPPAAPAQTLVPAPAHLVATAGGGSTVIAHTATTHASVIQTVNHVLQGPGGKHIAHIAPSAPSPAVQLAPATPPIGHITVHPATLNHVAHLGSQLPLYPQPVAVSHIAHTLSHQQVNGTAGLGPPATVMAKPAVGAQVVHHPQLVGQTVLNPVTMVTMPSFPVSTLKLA
# Method in brief: as §1
smiles,measurement,setting,value
Nc1nc2c(ncn2[C@@H]2O[C@H](COP(=O)(O)OP(=O)(O)OP(=O)(O)O)[C@@H](O)[C@H]2O)c(=O)[nH]1 [guanosine triphosphate],NP40-soluble protein abundance,[1]; concentration: 0.1mM,0.992 ± 0.041
same,NP40-soluble protein abundance,[1]; concentration: 0.5mM,0.985 ± 0.029
same,NP40-soluble protein abundance,[1]; concentration: 1mM,0.942 ± 0.035
same,NP40-soluble protein abundance,[1]; concentration: 2mM,0.924 ± 0.032
same,NP40-soluble protein abundance,[1]; concentration: 4mM,0.927 ± 0.053
same,NP40-soluble protein abundance,[1]; concentration: 6mM,0.9091 ± 0.0021
same,NP40-soluble protein abundance,[1]; concentration: 8mM,0.902 ± 0.048
same,NP40-soluble protein abundance,[1]; concentration: 10mM,0.904 ± 0.054
same,NP40-soluble protein abundance,[2]; concentration: 0.1mM,1.02 ± 0.073
same,NP40-soluble protein abundance,[2]; concentration: 0.5mM,0.918 ± 0.049
same,NP40-soluble protein abundance,[2]; concentration: 1mM,0.7918 ± 0.0036
same,NP40-soluble protein abundance,[2]; concentration: 2mM,0.846 ± 0.034
same,NP40-soluble protein abundance,[2]; concentration: 4mM,0.791 ± 0.016
same,NP40-soluble protein abundance,[2]; concentration: 6mM,0.694 ± 0.024
same,NP40-soluble protein abundance,[2]; concentration: 8mM,0.715 ± 0.099
same,NP40-soluble protein abundance,[2]; concentration: 10mM,0.798 ± 0.042
same,NP40-soluble protein abundance,[3]; concentration: 0.1mM,0.999 ± 0.067
same,NP40-soluble protein abundance,[3]; concentration: 0.5mM,0.972 ± 0.073
same,NP40-soluble protein abundance,[3]; concentration: 1mM,0.981 ± 0.078
same,NP40-soluble protein abundance,[3]; concentration: 2mM,0.955 ± 0.11
same,NP40-soluble protein abundance,[3]; concentration: 4mM,0.957 ± 0.12
same,NP40-soluble protein abundance,[3]; concentration: 6mM,0.94 ± 0.052
same,NP40-soluble protein abundance,[3]; concentration: 8mM,0.976 ± 0.019
same,NP40-soluble protein abundance,[3]; concentration: 10mM,0.953 ± 0.093
same,NP40-soluble protein abundance,[4]; concentration: 0.1mM,0.997 ± 0.099
same,NP40-soluble protein abundance,[4]; concentration: 0.5mM,0.949 ± 0.074
same,NP40-soluble protein abundance,[4]; concentration: 1mM,0.988 ± 0.092
same,NP40-soluble protein abundance,[4]; concentration: 2mM,0.942 ± 0.09
same,NP40-soluble protein abundance,[4]; concentration: 4mM,0.925 ± 0.098
same,NP40-soluble protein abundance,[4]; concentration: 6mM,0.923 ± 0.077
same,NP40-soluble protein abundance,[4]; concentration: 8mM,0.946 ± 0.061
same,NP40-soluble protein abundance,[4]; concentration: 10mM,0.934 ± 0.086
same,NP40-soluble protein abundance,[5]; concentration: 0.1mM,1.03 ± 0.037
same,NP40-soluble protein abundance,[5]; concentration: 0.5mM,0.924 ± 0.022
same,NP40-soluble protein abundance,[5]; concentration: 1mM,0.989 ± 0.081
same,NP40-soluble protein abundance,[5]; concentration: 2mM,1.04 ± 0.034
same,NP40-soluble protein abundance,[5]; concentration: 4mM,1.09 ± 0.23
same,NP40-soluble protein abundance,[5]; concentration: 6mM,1.03 ± 0.13
same,NP40-soluble protein abundance,[5]; concentration: 8mM,0.929 ± 0.17
same,NP40-soluble protein abundance,[5]; concentration: 10mM,1.11 ± 0.076
same,NP40-soluble protein abundance,[6]; concentration: 0.1mM,0.946 ± 0.063
same,NP40-soluble protein abundance,[6]; concentration: 0.5mM,0.868 ± 0.038
same,NP40-soluble protein abundance,[6]; concentration: 1mM,0.903 ± 0.049
same,NP40-soluble protein abundance,[6]; concentration: 2mM,0.879 ± 0.084
same,NP40-soluble protein abundance,[6]; concentration: 4mM,0.853 ± 0.085
same,NP40-soluble protein abundance,[6]; concentration: 6mM,0.868 ± 0.088
same,NP40-soluble protein abundance,[6]; concentration: 8mM,0.844 ± 0.072
same,NP40-soluble protein abundance,[6]; concentration: 10mM,0.832 ± 0.088
same,NP40-soluble protein abundance,[7]; concentration: 0.1mM,0.955 ± 0.016
same,NP40-soluble protein abundance,[7]; concentration: 0.5mM,0.954 ± 0.091
same,NP40-soluble protein abundance,[7]; concentration: 1mM,0.951 ± 0.065
same,NP40-soluble protein abundance,[7]; concentration: 2mM,0.931 ± 0.088

# 2 neighbouring records already listed, quoted:
smiles,measurement,setting,value
Nc1nc2c(ncn2[C@@H]2O[C@H](COP(=O)(O)OP(=O)(O)OP(=O)(O)O)[C@@H](O)[C@H]2O)c(=O)[nH]1 [guanosine triphosphate],NP40-soluble protein abundance,[1]; concentration: 6mM,0.9091 ± 0.0021
same,NP40-soluble protein abundance,[1]; concentration: 8mM,0.902 ± 0.048
